For the assay, the target named is 3H-Diazepam binding, rat brain cortical fragments. The assay is described as follows: 3H-Diazepam Binding Assay. Particulars: Tris buffer, assayed in triplicate, read-out: IC50 (nM), concentration required to inhibit binding by 50%. The procedure:
Brief-Description: Rat brain cortical fragments are prepared and the binding procedures performed as described by Mohler and Okada (Life Sciences, 20, 2101, 1977) except that Tris buffer is substituted for Krebs buffer. Drugs are assayed in triplicate.
Measurements Made: Radioactivity is measured by liquid scintillation counting.

In the case of `CN1C(=O)CN=C(c2ccccc2)c2cc(Cl)ccc21` [Diazepam], the IC50 turned out to be 5 nM.

For the origin of these results see US4436662A, “Pyrrolo[3,4-d][2]benzazepinones” (Hoffmann-La Roche Inc., priority 1983, dated 1984).
